Binding data for two substances are collected here from patent publication US20140134647A1 (LA JOLLA INSTITUTE FOR ALLERGY AND IMMUNOLOGY, published 2014).

By UniProt entry, the sequences of proteins in these tests, tags left out. Where a name states a change or a piece, a line headed by the entry shows the natural chain unless it says otherwise.
UniProt P50592: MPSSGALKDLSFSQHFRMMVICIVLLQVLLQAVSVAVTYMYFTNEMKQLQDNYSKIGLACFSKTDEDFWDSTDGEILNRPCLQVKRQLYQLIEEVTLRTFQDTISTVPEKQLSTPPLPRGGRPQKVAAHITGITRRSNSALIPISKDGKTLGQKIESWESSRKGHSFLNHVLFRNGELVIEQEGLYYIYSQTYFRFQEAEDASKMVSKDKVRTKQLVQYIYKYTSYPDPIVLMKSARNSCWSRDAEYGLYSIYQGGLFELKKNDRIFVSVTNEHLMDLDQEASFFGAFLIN
UniProt O14763: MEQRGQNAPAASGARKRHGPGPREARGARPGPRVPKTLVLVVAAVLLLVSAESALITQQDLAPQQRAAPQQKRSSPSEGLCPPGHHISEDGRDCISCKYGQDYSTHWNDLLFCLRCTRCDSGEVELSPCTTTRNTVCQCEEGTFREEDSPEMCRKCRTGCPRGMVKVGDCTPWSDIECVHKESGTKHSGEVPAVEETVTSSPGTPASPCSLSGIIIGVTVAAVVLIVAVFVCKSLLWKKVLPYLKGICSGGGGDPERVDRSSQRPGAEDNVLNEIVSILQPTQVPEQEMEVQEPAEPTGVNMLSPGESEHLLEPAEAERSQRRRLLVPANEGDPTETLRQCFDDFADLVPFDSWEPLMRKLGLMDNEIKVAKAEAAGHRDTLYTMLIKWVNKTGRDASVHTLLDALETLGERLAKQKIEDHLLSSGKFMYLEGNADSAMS
UniProt Q9QZM4: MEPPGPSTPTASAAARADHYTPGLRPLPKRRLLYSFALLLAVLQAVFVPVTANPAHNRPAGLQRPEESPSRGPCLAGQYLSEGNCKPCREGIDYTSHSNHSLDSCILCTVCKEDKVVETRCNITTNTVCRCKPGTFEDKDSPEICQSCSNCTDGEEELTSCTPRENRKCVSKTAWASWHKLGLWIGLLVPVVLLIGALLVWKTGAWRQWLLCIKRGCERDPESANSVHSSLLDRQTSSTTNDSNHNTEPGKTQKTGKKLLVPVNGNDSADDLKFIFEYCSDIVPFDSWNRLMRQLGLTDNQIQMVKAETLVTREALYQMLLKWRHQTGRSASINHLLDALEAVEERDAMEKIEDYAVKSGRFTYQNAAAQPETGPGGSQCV

Results are given in words; binding and its absence hold for the method and conditions named. Some binding calls cover weakened binding; strength is not graded here.

Assay [1] deals with mouse TRAIL expressed on transiently transfected 293T cells (mouse) (UniProt P50592). Nature of the assay: flow cytometry on 293T cells transfected with mouse TRAIL. A general note: A flow cytometer gives signals particle by particle.
Assay [2] has the same target. Put plainly: flow cytometry, 293T cells transiently transfected with mouse TRAIL, Fc protein at 2, 20 and 50 ug, detected with anti-IgG RPE.

As to “human TRAIL-R2:Fc (extracellular domain of human TRAIL-R2 fused to human IgG constant domain, from 293T cells) (from UniProt O14763 56-210; P01857 104-330) (Fc fusion)”, the binding result in assay [1] and in assay [2] was “binds” throughout.

In the case of “mouse TRAIL-R2:Fc (extracellular domain of mouse TRAIL-R2 fused to human IgG constant domain) (from UniProt Q9QZM4 53-180; P01857 104-330) (Fc fusion)”, the binding result in assay [1] and in assay [2] was “binds” in each case.
